These are yes or no findings as the source states them, for the method shown. In cells and extracts the contact can be indirect. Some results given as binding are weak or reduced against the parent protein; the word gives no strength.
Target: T1, DDX1 (human (endogenous; cell line not stated, all cell lines of the paper are human)) (UniProt Q92499)
T1 sequence: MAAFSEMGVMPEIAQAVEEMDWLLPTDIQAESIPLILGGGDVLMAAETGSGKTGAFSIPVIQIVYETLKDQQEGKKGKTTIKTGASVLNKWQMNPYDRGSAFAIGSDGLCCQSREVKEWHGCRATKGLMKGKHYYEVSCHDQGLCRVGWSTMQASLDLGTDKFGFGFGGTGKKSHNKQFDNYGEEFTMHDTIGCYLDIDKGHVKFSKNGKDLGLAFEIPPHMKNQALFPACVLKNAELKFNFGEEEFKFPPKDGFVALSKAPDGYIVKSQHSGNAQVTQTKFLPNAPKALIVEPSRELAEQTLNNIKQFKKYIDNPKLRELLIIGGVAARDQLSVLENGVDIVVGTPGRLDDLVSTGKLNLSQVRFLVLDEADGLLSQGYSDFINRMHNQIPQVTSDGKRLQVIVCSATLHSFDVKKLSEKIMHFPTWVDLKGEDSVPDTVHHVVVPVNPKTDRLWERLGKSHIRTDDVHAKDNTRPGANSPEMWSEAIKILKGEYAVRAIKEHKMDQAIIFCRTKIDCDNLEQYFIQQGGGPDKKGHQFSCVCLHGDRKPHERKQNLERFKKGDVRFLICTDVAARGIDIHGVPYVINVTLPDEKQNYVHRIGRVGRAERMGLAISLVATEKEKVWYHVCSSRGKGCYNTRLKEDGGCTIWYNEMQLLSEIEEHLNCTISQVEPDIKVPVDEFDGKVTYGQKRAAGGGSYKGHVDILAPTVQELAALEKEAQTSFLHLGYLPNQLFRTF
Experiment: co-IP; endogenous co-immunoprecipitation; interaction did not depend on RNA; cell line and precipitating antibody not stated

binding: binds
B1: DiGeorge syndrome critical region gene 8 (DGCR8) (protein, UniProt Q8WYQ5 1-773)
chain: METDESPSPLPCGPAGEAVMESRARPFQALPREQSPPPPLQTSSGAEVMDVGSGGDGQSELPAEDPFNFYGASLLSKGSFSKGRLLIDPNCSGHSPRTARHAPAVRKFSPDLKLLKDVKISVSFTESCRSKDRKVLYTGAERDVRAECGLLLSPVSGDVHACPFGGSVGDGVGIGGESADKKDEENELDQEKRVEYAVLDELEDFTDNLELDEEGAGGFTAKAIVQRDRVDEEALNFPYEDDFDNDVDALLEEGLCAPKKRRTEEKYGGDSDHPSDGETSVQPMMTKIKTVLKSRGRPPTEPLPDGWIMTFHNSGVPVYLHRESRVVTWSRPYFLGTGSIRKHDPPLSSIPCLHYKKMKDNEEREQSSDLTPSGDVSPVKPLSRSAELEFPLDEPDSMGADPGPPDEKDPLGAEAAPGALGQVKAKVEVCKDESVDLEEFRSYLEKRFDFEQVTVKKFRTWAERRQFNREMKRKQAESERPILPANQKLITLSVQDAPTKKEFVINPNGKSEVCILHEYMQRVLKVRPVYNFFECENPSEPFGASVTIDGVTYGSGTASSKKLAKNKAARATLEILIPDFVKQTSEEKPKDSEELEYFNHISIEDSRVYELTSKAGLLSPYQILHECLKRNHGMGDTSIKFEVVPGKNQKSEYVMACGKHTVRGWCKNKRVGKQLASQKILQLLHPHVKNWGSLLRMYGRESSKMVKQETSDKSVIELQQYAKKNKPNLHILSKLQEEMKRLAEEREETRKKPKMSIVASAQPGGEPLCTVDV
